Results from publication PMC6993235.
No constants are given. Whether binding was seen depends on the method and setting. Binding seen in cells or lysates may run through a third protein. Some entries that bind do so weakly or less than the wild type.

Chains of the proteins cited; added tags and fusions are not shown.
UniProt P09936: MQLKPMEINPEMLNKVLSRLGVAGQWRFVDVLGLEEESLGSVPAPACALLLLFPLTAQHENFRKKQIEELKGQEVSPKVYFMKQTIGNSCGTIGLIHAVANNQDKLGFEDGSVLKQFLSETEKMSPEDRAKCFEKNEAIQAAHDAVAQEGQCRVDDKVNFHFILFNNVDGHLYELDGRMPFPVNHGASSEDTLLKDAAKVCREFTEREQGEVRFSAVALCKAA

Experiments:
[1] = biological target: myc-his-UCH-L1 (Ubiquitin carboxyl terminal hydrolase-L1), expressed in HEK293T cells (UniProt P09936); assay: co-IP; HEK293T cells co-transfected with Flag-EGFR and myc-his-UCH-L1; RIPA lysis; IP with anti-Flag or anti-Myc and protein A/G agarose at 4 C overnight; western blot
GST-UCH-L1 = GST-UCH-L1 (UniProt P09936); assay: pull-down; purified GST-UCH-L1 from bacteria on glutathione-sepharose 4B beads incubated with lysate of HEK293T cells transfected with Flag-EGFR, 4 hours at 4 C; washed four times with GST binding buffer; immunoblot; only the target purified
[2] = biological target: myc-his-UCH-L1, expressed in MCF-7/AdrR cells (UniProt P09936); assay: co-IP; MCF-7/AdrR cells transfected with myc-his-UCH-L1; RIPA lysis; IP with anti-Myc; endogenous EGFR detected by western blot

Substance: Flag-EGFR, expressed in HEK293T cells (from UniProt P00533 25-1210) (receptor)
- binding [1]: binds
- binding (GST-UCH-L1): binds

Substance: endogenous EGFR of MCF-7/AdrR cells (from UniProt P00533 25-1210) (receptor)
- binding [2]: binds
